Chains of the proteins cited; added tags and fusions are not shown. Residues count along the entry.
UniProt P08069, residues 31-932: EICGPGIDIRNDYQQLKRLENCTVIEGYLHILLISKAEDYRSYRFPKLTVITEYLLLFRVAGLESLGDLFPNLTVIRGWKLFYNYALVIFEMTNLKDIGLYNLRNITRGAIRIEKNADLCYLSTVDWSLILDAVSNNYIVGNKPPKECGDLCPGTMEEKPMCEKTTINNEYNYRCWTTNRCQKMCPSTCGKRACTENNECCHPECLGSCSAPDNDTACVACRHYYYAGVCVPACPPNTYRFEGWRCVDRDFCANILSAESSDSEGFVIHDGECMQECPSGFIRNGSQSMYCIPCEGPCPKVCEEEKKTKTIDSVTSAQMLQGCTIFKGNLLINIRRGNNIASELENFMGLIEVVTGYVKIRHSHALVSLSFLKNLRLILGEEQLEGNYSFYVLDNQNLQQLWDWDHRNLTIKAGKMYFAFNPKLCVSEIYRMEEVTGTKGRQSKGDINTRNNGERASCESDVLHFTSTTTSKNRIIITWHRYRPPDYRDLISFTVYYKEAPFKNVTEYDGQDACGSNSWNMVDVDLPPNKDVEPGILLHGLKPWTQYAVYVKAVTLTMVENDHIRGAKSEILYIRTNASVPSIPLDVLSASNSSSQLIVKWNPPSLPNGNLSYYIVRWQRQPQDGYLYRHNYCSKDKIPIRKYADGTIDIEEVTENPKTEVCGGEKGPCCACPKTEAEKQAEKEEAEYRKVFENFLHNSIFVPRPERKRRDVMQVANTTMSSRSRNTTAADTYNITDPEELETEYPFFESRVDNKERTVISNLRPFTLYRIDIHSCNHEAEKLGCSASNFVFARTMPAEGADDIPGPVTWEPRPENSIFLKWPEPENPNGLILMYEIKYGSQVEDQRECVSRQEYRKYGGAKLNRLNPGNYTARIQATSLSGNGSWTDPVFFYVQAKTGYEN

These are yes or no findings as the source states them, for the method shown. Some results given as binding are weak or reduced against the parent protein; the word gives no strength.
These binders were tested against IGF1R (UniProt P08069) (assay: MRD identification, Example 48).
With FASGEYPPWEGYRWLY [IGF602] the binding was “binds”.
For WGDDHWEGYDWLYAQT [IGF603], the binding was “binds”.
For RDEAEWEGYNWLYSQM [IGF604], the binding was “binds”.
With DTWEGYLWLYAQTADA [IGF605] the binding was “binds”.
For YTRSLGDPWEGYSWLY [IGF607], the binding was “binds”.
With SAWEGYAWFDLQVESG [IGF611] the binding was “binds”.
In the case of YSIQDHGAWPGYDWLY [IGF612], the binding is reported as “binds”.
QWGHKSEQWEGYSWLY [IGF613] was tested, and the binding was “binds”.
In the case of QQPNTWEGYSWLYSQV [IGF614], the binding is reported as “binds”.
With DLWEGYLWFDSQVLGD [IGF616] the binding was “binds”.
IPLLCLEFPVLCFENE [IGF617] was tested, and the binding was “binds”.
With SYDYSQGEWEGYQWLY [IGF618] the binding was “binds”.
In the case of HDSALMAEWEGYNWLY [IGF619], the binding is reported as “binds”.
With QPWEGYKWLYEAA [IGF623] the binding was “binds”.
With PAASAWEGYKWLYDQV [IGF625] the binding was “binds”.
With LSTDWSGDWEGYAWLY [IGF630] the binding was “binds”.
For LLASEWEGYEWLYGQI [IGF633], the binding was “binds”.
With ALPECQDLMFYECLFTL [IGF1270] the binding was “binds”.
With FYNTCQFVGMEFYQCLDWL [IGF1271] the binding was “binds”.
In the case of RDPVCETKDVFYQMLCTVAF [IGF1272], the binding is reported as “binds”.
For RSLVCSEEEPFYLALCRLTH [IGF1273], the binding was “binds”.
For SVLGCDDVGFYQCLEFL [IGF1275], the binding was “binds”.
LEHLCQTRDGFYELMCTLAL [IGF1276] was tested, and the binding was “binds”.
AARWCDMQQHSFYECLQVL [IGF1277] was tested, and the binding was “binds”.
In the case of NALGCQEEWETLDQCLMRL [IGF1278], the binding is reported as “binds”.
In the case of AVPKCPGWDFYTALECLSRT [IGF1279], the binding is reported as “binds”.
In the case of EPRLCHNYPDFYQCMSFL [IGF1280], the binding is reported as “binds”.
In the case of ASQTCIGMDFYSGLECLLGW [IGF1281], the binding is reported as “binds”.
In the case of WVEECHNLHWDLKHCLMHQ [IGF1282], the binding is reported as “binds”.
For SVPSCIDYYGDWFLCLAAP [IGF1283], the binding was “binds”.
With NNTLCRGVPTFEECVFIL [IGF1284] the binding was “binds”.
In the case of SNGSCHIVDFYGWFQCQTSA [IGF1285], the binding is reported as “binds”.
With LTEPCSQHSMFYSMLCELAF [IGF1286] the binding was “binds”.
RDRVCHNKTFFHCLFSIFPDG [IGF1287] was tested, and the binding was “binds”.
For YGLGCSQMDFYQCLDML [IGF1290], the binding was “binds”.
With DVSHCHIMFWDFQQCLEYL [IGF1291] the binding was “binds”.
In the case of NPATCYQKSYQFEQCLMYL [IGF1292], the binding is reported as “binds”.
For VDVLCHHVDFYECMDRL [IGF1328], the binding was “binds”.
In the case of WLSQCEAKEIDFYMCLAGQAG [IGF1329], the binding is reported as “binds”.
GPKECIGVPNFDLCMAML [IGF1330] was tested, and the binding was “binds”.
For LEDWCLHLDFYQCLEAV [IGF1331], the binding was “binds”.
For TMPTCEKLNFYECMNLL [IGF1332], the binding was “binds”.
For SLSICTYADFYECMDLL [IGF1333], the binding was “binds”.
YIRECHELQNFTEGIHCLVTR [IGF1334] was tested, and the binding was “binds”.
TFKDCAHIPGIDFCLWRL [IGF1335] was tested, and the binding was “binds”.
In the case of SWDPCFESDEFHMKLCVLMD [IGF1336], the binding is reported as “binds”.
LLSECYDKDFYECLGLL [IGF1337] was tested, and the binding was “binds”.
With YQDMCEDMSFYECLEVL [IGF1338] the binding was “binds”.
In the case of AAANCHWPDEALQELCRYFA [IGF1339], the binding is reported as “binds”.
TGICENPDEFYRQLCLLVE [IGF1340] was tested, and the binding was “binds”.
In the case of WEHHCRRSHLDFYGCLSSI [IGF1341], the binding is reported as “binds”.
In the case of AAGSPLDDCYGYTGFYQGMCLLEL [IGF1347], the binding is reported as “binds”.
In the case of PSYHCSNMDYTFYECLMYL [IGF1348], the binding is reported as “binds”.
EQSYCSQNDMFYDWFCALVS [IGF1349] was tested, and the binding was “binds”.
In the case of GEEVCWVQEPFYSTLCILAF [IGF1354], the binding is reported as “binds”.
For NPFWCSWGHQFDNECDSMV [IGF1355], the binding was “binds”.
For WASTCQQTFYSMNRCLSQW [IGF1356], the binding was “binds”.
For LMELCAMDEDYYLWFCRAVE [IGF1360], the binding was “binds”.
SAVQCDLRLMCWQLRGPSRP [IGF1364] was tested, and the binding was “binds”.
For PSEICITEGLGFYQCLLKL [IGF1365], the binding was “binds”.
In the case of WVDKCHQEMMEFHECLKYV [IGF1366], the binding is reported as “binds”.
In the case of ARCECWESQFYWDLCSLAL [IGF1370], the binding is reported as “binds”.
For CTATCLEDQGFYWNMCKLVF [IGF1371], the binding was “binds”.
AYDCRKHHMNFYECLTYL [IGF1373] was tested, and the binding was “binds”.
With VGQMCSMGLELDRMKCNPCY [IGF1376] the binding was “binds”.
For LVDICQRQELDFYSCLRSV [IGF1378], the binding was “binds”.
For TGSDCYFYKHLYSLCVEVE [IGF1379], the binding was “binds”.
ESGDCPWLGHVSFEECLMWL [IGF1380] was tested, and the binding was “binds”.
In the case of LHSVCFEAPEWQQCLMQR [IGF1383], the binding is reported as “binds”.
PGVSAHALCYEFPVLCFYDVG [IGF1386] was tested, and the binding was “binds”.

From US20160046678A1 (ZYNGENIA, published 2016)
